Positions count from the first letter of the chain named. Results are given in words; binding and its absence hold for the method and conditions named. Some entries that bind do so weakly or less than the wild type.

Amino acid sequences for entries named in this document (tags omitted). A change or cut given only in a name is not applied to a line headed by its entry. Chains listed by the source or under a name are the forms on record and can include a tag or linker.
human CD71 (transferrin receptor 1) extracellular domain, recombinant, biotinylated (P02786, form named): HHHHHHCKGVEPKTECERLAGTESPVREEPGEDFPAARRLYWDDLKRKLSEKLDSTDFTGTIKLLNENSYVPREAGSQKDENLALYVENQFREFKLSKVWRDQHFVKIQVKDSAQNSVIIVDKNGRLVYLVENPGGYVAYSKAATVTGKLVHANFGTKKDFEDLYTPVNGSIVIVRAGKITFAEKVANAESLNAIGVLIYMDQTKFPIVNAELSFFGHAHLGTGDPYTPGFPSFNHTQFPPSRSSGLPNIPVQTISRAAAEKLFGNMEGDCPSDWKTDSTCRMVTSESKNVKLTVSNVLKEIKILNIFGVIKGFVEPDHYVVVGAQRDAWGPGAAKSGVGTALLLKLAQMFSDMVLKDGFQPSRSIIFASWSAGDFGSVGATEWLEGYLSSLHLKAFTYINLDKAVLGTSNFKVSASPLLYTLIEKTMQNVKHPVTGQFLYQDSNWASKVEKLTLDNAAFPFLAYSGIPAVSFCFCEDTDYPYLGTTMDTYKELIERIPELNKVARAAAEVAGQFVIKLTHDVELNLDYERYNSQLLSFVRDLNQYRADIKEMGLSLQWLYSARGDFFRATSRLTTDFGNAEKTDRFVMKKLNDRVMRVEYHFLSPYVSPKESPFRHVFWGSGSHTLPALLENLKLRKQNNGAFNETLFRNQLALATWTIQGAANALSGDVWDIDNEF

Drawing on patent US20220332795A1, this text covers binding for 28 molecules.

The target in the experiment is human CD71 (transferrin receptor 1) extracellular domain, recombinant, biotinylated (human) (UniProt P02786). Kind of experiment: hit of apical domain panning; heading of the sequence table.

B1: FN3 domain of SEQ ID NO: 23 (designed binder)
chain: MLPAPKNLVVSRVTEDSARLSWTAPDAAFDSFAIWYHEWYGDGEAIVLTVPGSERSYDLTGPKPGTEYRVRISGVKGGFESGPLSAIFTT
Regarding B1, the binding entry was “binds”.

B2: FN3 domain of SEQ ID NO: 22 (designed binder)
chain: MLPAPKNLVVSRVTEDSARLSWTAPDAAFDSFWYLELQFAGEAIVLTVPGSERSYDLTGLKPGTEYNVPITGVKGGIISFPLSAIFTT
Turning to B2, the binding result is “binds”.

B3: FN3 domain of SEQ ID NO: 20 (designed binder)
chain: MLPAPKNLVVARVTEDSARLSWTAPDAAIDSFPIDYSEYWWGGEAIVLTVPGSERSYDLTGLKPGTEYPVLITGVKGGYRSGPLSAIFTT
For the molecule B3, the binding result was “binds”.

B4: FN3 domain of SEQ ID NO: 3 (designed binder)
chain: MLPAPKNLVVSRVTEDSARLSWTAPDAAFDSFNIEYAETRWYGEAIVLTVPGSERSYDLTGLKPGTEYVVPIDGVKGGIASKPLSAIFTT
Regarding B4, the binding entry is listed as “binds”.

B5: FN3 domain of SEQ ID NO: 10 (designed binder)
chain: B4 chain with N33K, E35A, A37I, R40A, W41T, Y42R, D73P, I79N, A80T, K82S
In the case of B5, the binding result is “binds”.

B6: FN3 domain of SEQ ID NO: 33 (designed binder)
chain: B4 chain with N33G, E35A, A37V, T39S, R40Y, V69N, D73Y, I79D, A80G, K82G
B6: the binding result was “binds”.

B7: FN3 domain of SEQ ID NO: 2 (designed binder)
chain: MLPAPKNLVVSEVTEDSARLSWQGVARAFDSFMINYSELFWMGEAIVLTVPGSERSYDLTGLKPGTEYVVRIKGVKGGKGSWPLHAHFTT
Turning to B7, the binding result is given as “binds”.

B8: FN3 domain of SEQ ID NO: 12 (designed binder)
chain: MLPAPKNLVVSRVTEDSARLSWTAPDAAFDSFFIPYAEPSPTGEAIVLTVPGSERSYDLTGLKPGTEYSVLIHGVKGGHLSDPLSAISTT
For the molecule B8, the binding result is “binds”.

B9: FN3 domain of SEQ ID NO: 13 (designed binder)
chain: MLPAPKNLVVSRVTEDSARLSWTAPDAAFDSFLIAYPEDGFRGEAIVLTVPGSERSYDLTGLKPGTEYPVPILGVKGGGGSGPLSAIFTT
As to B9, the binding result is listed as “binds”.

B10: FN3 domain of SEQ ID NO: 18 (designed binder)
chain: B9 chain with L33N, A35M, P37H, D39I, G40I, F41Y, R42V, L73E, G80T
On to B10, for which the binding result is listed as “binds”.

B11: FN3 domain of SEQ ID NO: 34 (designed binder)
chain: B9 chain with L33Y, A35T, P37V, D39L, G40N, F41L, R42A, G79S, G80L, G82Q
As to B11, the binding result is “binds”.

B12: FN3 domain of SEQ ID NO: 1 (designed binder)
chain: MLPAPKNLVVSRVTEDSARLSWTAPDAAFDSFPITYIEAVVLGEAIVLTVPGSERSYDLTGLKPGTEYPVGISGVKGGHNSMPLSAIFTT
Regarding B12, the binding result is reported as “binds”.

B13: FN3 domain of SEQ ID NO: 29 (designed binder)
chain: B12 chain with P33W, T35E, I37W, V41G, L42F, P69F, S73Y, H79Y, N80L, M82A
Regarding B13, the binding result is given as “binds”.

B14: FN3 domain of SEQ ID NO: 19 (designed binder)
chain: B9 chain with L33A, A35T, P37T, D39A, G40A, F41L, R42C, L73N, G80T
Turning to B14, the binding entry was “binds”.

B15: FN3 domain of SEQ ID NO: 6 (designed binder)
chain: MLPAPKNLVVSRVTEDSARLSWTAPDAAFDSFPIIYMETFSRGEAIVLTVPGSERSYDLTGLKPGTEYRVPIGGVKGGSSSCPLSAIFTT
With B15, the binding entry is reported as “binds”.

B16: FN3 domain of SEQ ID NO: 25 (designed binder)
chain: B15 chain with I35W, M37L, T39K, F40S, S41Y, R42Q, R69V, G73I, S79R, S80D
As to B16, the binding entry is “binds”.

B17: FN3 domain of SEQ ID NO: 17 (designed binder)
chain: B9 chain with L33P, A35L, P37T, D39C, G40V, F41Y, P69H, L73T, G82W
With B17, the binding entry is “binds”.

B18: FN3 domain of SEQ ID NO: 30 (designed binder)
chain: MLPAPKNLVVSRVTEDSARLSWTAPDAAFDSFIIHYVEQQLIGEAIVLTVPGSERSYDLTGLKPGTEYPVPITGVKGGACSWPLSAIFTT
In the case of B18, the binding entry is on record as “binds”.

B19: FN3 domain of SEQ ID NO: 24 (designed binder)
chain: MLPAPKNLVVSRVTEDSARLSWTAPDAAFDSFMIRYQEGTRWGEAIVLTVPGSERSYDLTGLKPGTEYIVMIAGVKGGQISLPLSAIFTT
Turning to B19, the binding result is recorded as “binds”.

B20: FN3 domain of SEQ ID NO: 27 (designed binder)
chain: MLPAPKNLVVSRVTEDSARLSWTAPDAAFDSFRISYAETVRQGEAIVLTVPGSERSYDLTVETGYRNWVMILGVKGGPGSLPLSAIFTT
Regarding B20, the binding entry is given as “binds”.

B21: FN3 domain of SEQ ID NO: 31 (designed binder)
chain: MLPAPKNLVVSRVTEDSARLSWTAPDAAFDSFTIEYSEHPIDGEAIPLFVPGSERSYDLTGLKPGTEYYVRIHGVKGGWFSHPLWAFFTT
Consider B21, for which the binding entry is given as “binds”.

B22: FN3 domain of SEQ ID NO: 4 (designed binder)
chain: MLPAPKNLVVSEVTEDSARLSWQGVARAFDSFLITYRDQIFAGEVIVLTVPGSERSYDLTGLKPGTEYPVWIQGVKGGSPSAPLSAESTT
Take B22: the binding result was “binds”.

B23: FN3 domain of SEQ ID NO: 7 (designed binder)
chain: B22 chain with E12D, D38E, S88F
As for B23, the binding entry is reported as “binds”.

B24: FN3 domain of SEQ ID NO: 26 (designed binder)
chain: B22 chain with D38E, S88F
In the case of B24, the binding entry is “binds”.

B25: FN3 domain of SEQ ID NO: 32 (designed binder)
chain: B22 chain with E12R, D38E, P69G, W71T, Q73A, S79W, P80R, A82K, S85N
With B25, the binding result was “binds”.

B26: FN3 domain of SEQ ID NO: 5 (designed binder)
chain: B22 chain with D38E, P69W, W71Y, Q73W, S79K, A82F, S85R, E87G, S88F
For B26, the binding result is “binds”.

B27: FN3 domain of SEQ ID NO: 15 (designed binder)
chain: B22 chain with E12R, D38E, Y68C, S88F
In the case of B27, the binding result is on record as “binds”.

B28: FN3 domain of SEQ ID NO: 21 (designed binder)
chain: MLPAPKNLVVSRVTEDSARLSWTAPDAAFDSFSIRYNEFIVAGEAIVLTVPGSERSYDLTGLKPGTEYDVPIAGVKGGGASWPLSAIVTT
B28: the binding entry is “binds”.
